Test results: PubChem BioAssay AID1508600 (Functional Genomics Laboratory (NCATS/FGL), 2020)
Screen size: about 53,000 sequences; about 3,700 (7%) were called active.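 How the source made its calls: active means gene knockdowns whose robust z-score for IL-1 alpha signal is at least 2 or at most -2, so actives lie on both sides; inactive means the rest.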 Some of the results follow.

test: Components of the Cytosolic LPS Sensing Pathway: Gene Identification via Genome-wide siRNA Screen; settings: RAW264.7 macrophages, IL-1a HTRF, actives lie on both sides, screened at 100 nM (by protocol), cells primed 5 h with Pam3CSK4 first;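 further: robust z of the log signal after scaling to non-targeting control siRNA wells of the plate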
Outline: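 Knockdown: 100 nM siRNA, 48h, RAW264.7. Stimulation: Pam3CSK4 5 h, then LipidA via TransIT-TKO 24 h. Output: supernatant IL-1a HTRF, negative-control-normalized, log robust z-score; viability by CellTiter-Glo.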

Q: Which z-score does the source give for CCCGGAGCUUGAAUUACUGTT against Usp7 here?
A: active: 2.36

Q: Which z-score does the source give for GGACUGAAGAUCAUAUUCATT against Prl3b1 here?
A: inactive: 0.15

Q: With GGAAUCUCCGAAGCAUGAATT against Sorbs1 as the sequence, how does the z-score read?
A: inactive: 0.696

Q: For GGCCAACAAGCAGGUUUUUTT against Rmc1, which z-score is on record?
A: inactive: 1.89

Q: With UGCACUGAGGAAUAAGGACTT against Olfr111 as the sequence, how does the z-score read?
A: inactive: 0.225

Q: With GGUGUAAUUGCCUUGAAGGTT against Il25 as the sequence, how does the z-score read?
A: inactive: 0.868

Q: For GGAAAUCUAAUGCACUUACTT against Gsdma3, which z-score is on record?
A: inactive: 0.138

Q: Which z-score does the source give for “CCCUAUCCUAAAAGCAGACTT against E430018J23Rik” here?
A: inactive: -0.184

Q: With GGCCAUCAGUGUGGAAUGUTT against BC004004 as the sequence, how does the z-score read?
A: inactive: -0.19

Q: With GGAUCUUGAUCCACAUCUCTT against Padi6 as the sequence, how does the z-score read?
A: active: -2.47

Q: For GGUAAAAUCACGCAGUAAATT against Ppp1r3a, which z-score is on record?
A: inactive: -0.56

Q: For GGAAUAUCCGUAAUAACUATT against Grin2b, which z-score is on record?
A: active: 2.82

Q: With GGAGAUUUUGAUGAGCAGATT against Gpatch3 as the sequence, how does the z-score read?
A: inactive: -0.885

Q: For GGAAAAGGCCAAAAGCUGUTT against Rnd1, which z-score is on record?
A: inactive: -0.958

Q: For GGGCUGUGUAUCAAAACAUTT against Sft2d1, which z-score is on record?
A: inactive: -1.96

Q: With GGCGGACGUGAAGAACUUGTT against Letmd1 as the sequence, how does the z-score read?
A: inactive: 1.28

Q: For GCUCCAGGUCCUUAGAAUATT against Me1, which z-score is on record?
A: inactive: 0.255

Q: For GGAAAAGAUAACUCAGACATT against Hrg, which z-score is on record?
A: inactive: 0.727

Q: Which z-score does the source give for GCUUUUGUGACUCUGCUGATT against Raver1 here?
A: inactive: -1.41

Q: For GGUAGAAGCUGUCUUCAGATT against Mrps30, which z-score is on record?
A: inactive: -0.311

Q: Which z-score does the source give for GGAGGAAGAUCUUUAAUGUTT against Gm4793 here?
A: inactive: 0.69

Q: Which z-score does the source give for GGAACACACUUUUACCAUUTT against Clstn3 here?
A: inactive: 0.574

Q: Which z-score does the source give for GCUCAACUUUCGAAUGAACTT against Tmem100 here?
A: inactive: 0.479

Q: Which z-score does the source give for CCACUAGCUAUCUCAUACCTT against Tktl1 here?
A: inactive: -0.0025

Q: Which z-score does the source give for GGUCAUGUCCAUCCCAAAGTT against Ficd here?
A: inactive: 1.15

Q: Which z-score does the source give for GGAACAGACAUAUAAGCAUTT against Blvra here?
A: inactive: 0.463

Q: With GCCUGACGAAGGUUUCUAUTT against Neo1 as the sequence, how does the z-score read?
A: inactive: -0.114

Q: For GCUCAUCUUAUCCUCUAAGTT against Cts7, which z-score is on record?
A: inactive: 0.391

Q: Which z-score does the source give for GCACUUACACUCUGUUUAATT against Fgf13 here?
A: inactive: -0.623

Q: With CCGGCAAUGACUGUGAAUCTT against Adamts7 as the sequence, how does the z-score read?
A: inactive: -1.31

Q: For GGCUCCACCAAAGCCUGUUTT against Rpf1, which z-score is on record?
A: inactive: 0.461

Q: With GGACAUCUACACCAUUUGGTT against Mplkip as the sequence, how does the z-score read?
A: active: -2.11

Q: For GGUUCCAACAAUUGUAAAGTT against Chl1, which z-score is on record?
A: inactive: -0.00378

Q: With GGAAGGAUGUAAGUUGUCCTT against Suz12 as the sequence, how does the z-score read?
A: inactive: 0.119

Q: Which z-score does the source give for GGAUCUCUAUAUGUGGCUUTT against Brix1 here?
A: inactive: 0.0557

Q: Which z-score does the source give for GGACAUCUGACAUCCAGUGTT against Pmvk here?
A: inactive: -0.659

Q: For CCAUCCUAAAGAAUGUUAATT against Nf1, which z-score is on record?
A: inactive: -1.27

Q: Which z-score does the source give for CCUUAUUUGCUUAUCAUAGTT against Zfp367 here?
A: inactive: -1.4

Q: For GGAAGCCAAUGUCAAGUGCTT against Cbx1, which z-score is on record?
A: inactive: 1.09

Q: Which z-score does the source give for CCAACUAAGAUGGAUCAAUTT against Commd2 here?
A: inactive: -0.883

Q: With GGAAUUUAAGCAGAAUGUGTT against Fcho1 as the sequence, how does the z-score read?
A: inactive: -1.32

Q: For GGUUGUAGGAAUAAUUGAATT against Nup160, which z-score is on record?
A: inactive: 0.688

Q: With GGACAUCGAAGUCCAACACTT against Plekhm1 as the sequence, how does the z-score read?
A: inactive: -0.501

Q: For CCCAGGAAAAACCGUCAACTT against Zfp58, which z-score is on record?
A: inactive: 0.718

Q: Which z-score does the source give for “GCAACAAGCCUAGCUAAUCTT against A630038E17Rik” here?
A: inactive: 0.905

Q: For GGGCAGUGCUUAUUAUGCUTT against Emc9, which z-score is on record?
A: inactive: 0.555

Q: For GGCAAUUCAUUGCAUGUUATT against Cdc42ep3, which z-score is on record?
A: inactive: -0.177

Q: With GGGACCAGAGGAAACAGAATT against Tnfsf13b as the sequence, how does the z-score read?
A: active: -2.21

Q: With GGUGCUGACUGGUCAGAUGTT against Cers1 as the sequence, how does the z-score read?
A: inactive: -0.41

Q: With GGUGAUAGUACUGUCAGCCTT against Olfr1225 as the sequence, how does the z-score read?
A: inactive: -0.517

Q: With GGAACUCUCAGAUCUGAUUTT against Ppl as the sequence, how does the z-score read?
A: inactive: 0.969

Q: Which z-score does the source give for GUAUCCUUUUUAUAGCCUATT against Vmn1r44 here?
A: inactive: 0.482

Q: Which z-score does the source give for GGGUGAUAAUGAGUCUACCTT against Pja1 here?
A: inactive: -0.0641

Q: For GGAAAAAGAAUUGAGAGCUTT against Dhx15, which z-score is on record?
A: inactive: -1.79

Q: Which z-score does the source give for GCAAACAAGGUCCUAGUCUTT against Iqca here?
A: inactive: -1.5

Q: With GGGCAAUGGGUGAUCUAAUTT against Phactr1 as the sequence, how does the z-score read?
A: inactive: 0.00934

Q: With GCUCAUCUACCACCUCACUTT against Lrrc75b as the sequence, how does the z-score read?
A: inactive: 0.214

Q: With GGCCGUAUGUGAAUUUGAATT against Tnfaip6 as the sequence, how does the z-score read?
A: inactive: 0.714

Q: Which z-score does the source give for GCCUCAUUUGAUCAAUGUCTT against Actr2 here?
A: inactive: 1.86

Q: With GGCUUAAGGGAAUAUUUUCTT against Tmem14a as the sequence, how does the z-score read?
A: inactive: -0.75

Q: For GGAAACCAUCUUUGAACUUTT against Specc1l, which z-score is on record?
A: inactive: 0.54

Q: For GAAGAAAUGAAGACACAAGTT against Phgr1, which z-score is on record?
A: inactive: 1.22

Q: Which z-score does the source give for CCUCCUGAUAUCGAGUUCCTT against Dnm1 here?
A: inactive: -0.904

Q: With GGAUCCAUCUGUUGGCAACTT against Slc5a2 as the sequence, how does the z-score read?
A: inactive: 0.891

Q: For GCUAUCUCUGCUAAUAAAGTT against Col6a1, which z-score is on record?
A: inactive: -0.203

Q: With GCAUCGAUCUUGAGUUAGATT against Hebp1 as the sequence, how does the z-score read?
A: inactive: 0.579

Q: With GCAUUCAGCCAUCGUAAUCTT against Eef2kmt as the sequence, how does the z-score read?
A: inactive: -1.13

Q: With GCACAGUUCCAACUUCGUUTT against Ttll6 as the sequence, how does the z-score read?
A: inactive: -0.57

Q: With GCUCAAAUUGAGUCCUUAUTT against Ccdc122 as the sequence, how does the z-score read?
A: inactive: -0.548

Q: For GGAAAUACUAUGUUUGACUTT against Gja5, which z-score is on record?
A: inactive: -0.144

Q: With AAAGGACUGCCUAAGACAATT against Vmn1r203 as the sequence, how does the z-score read?
A: inactive: -0.921

Q: For GGUAUUAUGAUCAGAUUUGTT against Pdcd6ip, which z-score is on record?
A: inactive: 1.83

Q: With CCAUGUCAAAGAAAAACCATT against Rfx2 as the sequence, how does the z-score read?
A: inactive: -0.387

Q: With GGUCACACCCACCAUUACGTT against Serpina11 as the sequence, how does the z-score read?
A: inactive: -0.765

Q: For GGUCAGCAUUAUCAAGCCUTT against Hsd11b2, which z-score is on record?
A: inactive: 0.159

Q: For GGAUUCCUGGUCUUUAAGCTT against Zfp7, which z-score is on record?
A: inactive: 0.631

Q: With GGAGUGUAUUAAGAUUUCUTT against Guf1 as the sequence, how does the z-score read?
A: inactive: 1.5

Q: Which z-score does the source give for CCAUACUACGGAUGUUUGATT against Calb2 here?
A: inactive: 0.677

Q: Which z-score does the source give for GGAAGCAUUUGAAGUUAAATT against Prdm16 here?
A: inactive: 0.977

Q: For GGUGAACUGAAAAUUCUAGTT against Usp12, which z-score is on record?
A: inactive: 0.639

Q: Which z-score does the source give for GGCUGAAAGGGAAGACAAATT against B3galnt1 here?
A: inactive: 1.47

Q: Which z-score does the source give for CGAGAUUUAUAUGGUGUCUTT against Agbl3 here?
A: inactive: -0.175

Q: Which z-score does the source give for UCAACCAAACAAUCCUGAATT against Olfr417 here?
A: inactive: -0.473

Q: For GGUAAAAACUUUCCUUUAGTT against Prph2, which z-score is on record?
A: inactive: 1.48

Q: For GGACUCAAGUGCAAGACACTT against Strip2, which z-score is on record?
A: inactive: 1.6

Q: For CCUAUUGACUGUGAGCUAUTT against C8b, which z-score is on record?
A: inactive: 0.667

Q: For GGACAGUUCAAUGAGGACATT against Arl8a, which z-score is on record?
A: inactive: 0.208

Q: Which z-score does the source give for GGAGCUACCCGACAUACUGTT against Cfi here?
A: inactive: -1.21

Q: For GGAGACAAUUUAAAAGCAGTT against Cmtm2b, which z-score is on record?
A: inactive: -1.16

Q: Which z-score does the source give for GGACUUUGAGACUCAUCCGTT against Tmem229b here?
A: inactive: -1.01

Q: With GGGCUUUGGCUACAAAGGCTT against Ppif as the sequence, how does the z-score read?
A: inactive: -1.4

Q: With GGAACAGAUCUCUGAUAUATT against Sub1 as the sequence, how does the z-score read?
A: inactive: 0.564

Q: For CCUCAUUCGAUACAUCUGUTT against Ints3, which z-score is on record?
A: inactive: 0.319

Q: With GGAAGAAGCCAAAAUUGAATT against Pdgfa as the sequence, how does the z-score read?
A: inactive: 0.237

Q: For GCUCUCCACUGACUUAGUATT against Mrgpra3, which z-score is on record?
A: inactive: -1.91

Q: Which z-score does the source give for GGCAUGAUGAUAUUUGAAATT against Glrp1 here?
A: inactive: -0.142

Q: For CCUGUACCUGACCAAACCUTT against Socs2, which z-score is on record?
A: inactive: -0.937

Q: With GGUCAUGAUGAAUGAGACUTT against Cstf1 as the sequence, how does the z-score read?
A: inactive: 1.68

Q: With GAAGCCUAACCUCACCCUGTT against Ang as the sequence, how does the z-score read?
A: inactive: -0.781

Q: For GGAAUUAAUGGCAUAGACUTT against Cert1, which z-score is on record?
A: inactive: 0.521

Q: Which z-score does the source give for GGGUUUAGACGUAGAUUCUTT against Rpl17 here?
A: inactive: -0.525

Q: With GCGUGUAUACCAGCCUUACTT against Egfl7 as the sequence, how does the z-score read?
A: inactive: 0.0437

Q: With CGCCAUCAAAUAUGAAGCATT against Vps4a as the sequence, how does the z-score read?
A: inactive: -0.44

Q: Which z-score does the source give for GGUCAUCUUACAGUUUAAATT against Smap2 here?
A: inactive: 0.593

Q: With CCUUCAGUGCUGUAGUGUATT against Rasl10b as the sequence, how does the z-score read?
A: inactive: 0.37

Q: For GGGAGAGAAAUCCCAUUCUTT against Bsnd, which z-score is on record?
A: inactive: -0.992

Q: With GCCUAUUGGCCUGAUAUGUTT against Gpr141b as the sequence, how does the z-score read?
A: inactive: 0.173
